Laboratory results from doi:10.1101/2020.08.29.273516.
Where two headings read alike, the source gives them in different places. No constants are given. Whether binding was seen depends on the method and setting. For some of these results: In cells and extracts the contact can be indirect. Some binding calls cover weakened binding; strength is not graded here. For some of these results: Sequences can lack the tags named with a protein.

By UniProt entry, the sequences of proteins in these tests, tags left out. Residues count along the entry.
UniProt Q9QUK6, residues 26-835: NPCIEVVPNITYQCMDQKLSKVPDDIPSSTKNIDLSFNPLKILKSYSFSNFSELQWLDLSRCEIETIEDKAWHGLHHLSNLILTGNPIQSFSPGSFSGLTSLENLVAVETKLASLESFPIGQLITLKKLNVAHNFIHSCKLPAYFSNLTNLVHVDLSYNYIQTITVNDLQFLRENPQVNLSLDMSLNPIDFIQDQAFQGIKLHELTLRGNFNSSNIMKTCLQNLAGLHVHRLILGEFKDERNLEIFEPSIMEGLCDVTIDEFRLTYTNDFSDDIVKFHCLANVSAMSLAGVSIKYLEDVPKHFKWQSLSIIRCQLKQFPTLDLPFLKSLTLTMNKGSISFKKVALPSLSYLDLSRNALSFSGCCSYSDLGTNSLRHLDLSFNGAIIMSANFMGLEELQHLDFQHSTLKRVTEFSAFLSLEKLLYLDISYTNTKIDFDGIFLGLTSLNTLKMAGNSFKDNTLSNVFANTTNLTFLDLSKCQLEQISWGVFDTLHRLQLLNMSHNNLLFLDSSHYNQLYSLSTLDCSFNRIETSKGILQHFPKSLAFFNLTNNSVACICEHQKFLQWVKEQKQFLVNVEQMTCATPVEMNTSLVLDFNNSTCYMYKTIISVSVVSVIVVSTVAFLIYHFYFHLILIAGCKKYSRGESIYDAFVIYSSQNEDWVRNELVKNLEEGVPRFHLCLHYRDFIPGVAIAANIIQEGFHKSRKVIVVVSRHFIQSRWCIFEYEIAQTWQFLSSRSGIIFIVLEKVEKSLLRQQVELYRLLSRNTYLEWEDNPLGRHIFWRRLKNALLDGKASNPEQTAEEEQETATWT
UniProt O00206, residues 676-835: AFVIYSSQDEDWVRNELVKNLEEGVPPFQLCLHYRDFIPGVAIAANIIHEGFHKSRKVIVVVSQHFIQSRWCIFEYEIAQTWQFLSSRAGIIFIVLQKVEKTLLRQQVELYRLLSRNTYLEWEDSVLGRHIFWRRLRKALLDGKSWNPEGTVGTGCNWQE
UniProt Q5SNZ0: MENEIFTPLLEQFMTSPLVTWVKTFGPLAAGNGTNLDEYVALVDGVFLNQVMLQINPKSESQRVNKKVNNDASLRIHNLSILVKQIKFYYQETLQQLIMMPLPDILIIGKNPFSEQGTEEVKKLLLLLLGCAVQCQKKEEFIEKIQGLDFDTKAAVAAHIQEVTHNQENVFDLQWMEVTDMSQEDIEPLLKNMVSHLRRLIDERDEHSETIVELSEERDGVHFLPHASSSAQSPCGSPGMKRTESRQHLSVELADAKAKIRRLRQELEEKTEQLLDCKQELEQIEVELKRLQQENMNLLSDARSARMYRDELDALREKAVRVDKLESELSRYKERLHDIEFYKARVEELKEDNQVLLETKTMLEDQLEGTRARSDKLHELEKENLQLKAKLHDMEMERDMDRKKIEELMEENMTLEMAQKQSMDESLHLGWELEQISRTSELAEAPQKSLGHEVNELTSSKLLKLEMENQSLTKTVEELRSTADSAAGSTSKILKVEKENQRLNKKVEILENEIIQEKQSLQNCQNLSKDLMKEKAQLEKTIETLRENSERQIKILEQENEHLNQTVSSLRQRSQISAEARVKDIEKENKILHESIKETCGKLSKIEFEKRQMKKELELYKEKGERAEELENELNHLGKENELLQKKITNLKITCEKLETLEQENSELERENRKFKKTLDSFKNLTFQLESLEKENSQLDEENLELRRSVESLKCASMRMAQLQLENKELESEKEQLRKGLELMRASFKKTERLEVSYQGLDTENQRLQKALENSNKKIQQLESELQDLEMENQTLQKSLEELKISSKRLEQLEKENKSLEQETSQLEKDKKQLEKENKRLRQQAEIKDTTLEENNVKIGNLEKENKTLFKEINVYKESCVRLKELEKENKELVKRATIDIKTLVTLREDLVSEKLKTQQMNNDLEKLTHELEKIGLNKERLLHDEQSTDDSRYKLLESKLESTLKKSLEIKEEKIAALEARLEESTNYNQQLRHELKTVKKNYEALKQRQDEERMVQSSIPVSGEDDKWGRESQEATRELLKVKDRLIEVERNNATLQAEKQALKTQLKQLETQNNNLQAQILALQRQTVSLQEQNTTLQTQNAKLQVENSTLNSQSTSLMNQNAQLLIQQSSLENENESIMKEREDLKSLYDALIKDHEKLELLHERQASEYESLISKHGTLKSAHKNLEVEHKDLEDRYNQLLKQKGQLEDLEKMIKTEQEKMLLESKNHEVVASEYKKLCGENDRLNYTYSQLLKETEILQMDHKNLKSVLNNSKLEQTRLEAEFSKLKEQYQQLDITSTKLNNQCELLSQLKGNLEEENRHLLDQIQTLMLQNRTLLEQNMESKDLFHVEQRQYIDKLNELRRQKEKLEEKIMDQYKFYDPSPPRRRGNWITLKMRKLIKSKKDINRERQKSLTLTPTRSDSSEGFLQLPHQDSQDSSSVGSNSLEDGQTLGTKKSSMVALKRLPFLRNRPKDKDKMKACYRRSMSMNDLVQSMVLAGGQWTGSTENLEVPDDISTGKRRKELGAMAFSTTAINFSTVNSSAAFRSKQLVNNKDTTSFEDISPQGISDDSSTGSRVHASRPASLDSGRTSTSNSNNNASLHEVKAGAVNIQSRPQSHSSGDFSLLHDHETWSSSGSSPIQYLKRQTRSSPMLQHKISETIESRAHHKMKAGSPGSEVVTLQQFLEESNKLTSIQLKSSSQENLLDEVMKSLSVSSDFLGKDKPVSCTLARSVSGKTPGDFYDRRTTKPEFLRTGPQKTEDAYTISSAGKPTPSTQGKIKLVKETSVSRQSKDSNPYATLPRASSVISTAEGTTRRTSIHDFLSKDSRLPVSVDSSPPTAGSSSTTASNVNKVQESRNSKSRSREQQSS

How the values were obtained:
[1] = target: TLR4, endogenous full length, RAW 264.7 macrophages (mouse (endogenous in RAW 264.7)) (UniProt Q9QUK6); test: co-IP
[2] = target: TLR4, endogenous full length, RAW 264.7 macrophages (mouse (endogenous in RAW 264.7)) (UniProt Q9QUK6); test: co-IP; remark: listed apart in the source
[3] = target: GST-TLR4-TIR (GST-tagged cytoplasmic Toll/interleukin-1 receptor module of TLR4, aa 676-835) (UniProt O00206); test: pull-down
[4] = target: TLR4, endogenous full length, RAW 264.7 macrophages (mouse (endogenous in RAW 264.7)) (UniProt Q9QUK6); test: co-IP; remark: listed apart in the source

Molecule	binding [1]	binding [2]	binding [3]	binding [4]
GIV (Girdin), endogenous full length, RAW 264.7 macrophages (from UniProt Q5SNZ0 1-1873)	binds	binds	–	–
RQIKIWFQNRRMKWKKKPEFLRPGPRKT [GIV-TILL peptide (cell-penetrable: Antennapedia peptide fused to the TILL motif of GIV)]	–	–	binds	binds
